Laboratory results: PubChem BioAssay AID1159578 (Peter MacCallum Cancer Centre, 2015)
The deposit covers about 18,000 reagents; this is a part drawn at random. Of all reagents, about 1,030 (5.7%) got an active call. 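Inactive calls also include pools with fewer than 3300 nuclei, whose migration was not assessed.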 Raw values are not corrected between plates. Entries without a mark were called inactive. Not all columns of the deposit are shown.

Screen: 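Knock-downs that alter how fast lymphatic endothelial cells migrate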 (primary screen)
System: human lymphatic endothelial cells
Reagent: siRNA pool against human genes, 40 nM
Duration: 48 h after transfection
Measurement: 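High-content imaging of dye-stained cells in a scratch assay measures filled wound area and nuclei per well; duplicate means given as ratio to mock and robust z-score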
Scale: migration robust z-score: higher = faster migration into the scratch; nuclei per well: higher = more cells in the well
Hit rule: 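Migration changed when robust z exceeds 2 or falls below -2 and mean nuclei number is at least 3300; otherwise not called changed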
Calls: active = migration changed; inactive = no migration change, or too few cells

For ZNF658 (zinc finger protein 658), the entry reads migration robust z-score -0.16; nuclei per well, duplicate mean 4262.
Silencing of SSX5 (SSX family member 5) gave: migration robust z-score 0.44; nuclei per well, duplicate mean 4562.
Against APOBEC3B (apolipoprotein B mRNA editing enzyme catalytic subunit 3B) the deposit lists migration robust z-score -0.38; nuclei per well, duplicate mean 5697.
CTAGE1 (cutaneous T cell lymphoma-associated antigen 1) gave migration robust z-score 2.38 (active); nuclei per well, duplicate mean 6608.
PCDHGA5 (protocadherin gamma subfamily A, 5) scored migration robust z-score 0.34; nuclei per well, duplicate mean 5634.
Knock-down of BRSK1 (BR serine/threonine kinase 1) resulted in: migration robust z-score -0.98; nuclei per well, duplicate mean 3004.

A few values from the list.
BRSK1 (BR serine/threonine kinase 1), migration robust z-score = -0.98
Entry for PCDHGA5 (protocadherin gamma subfamily A, 5) under “migration robust z-score”: 0.34

Further results:
BCORL1 (BCL6 corepressor like 1) gave migration robust z-score 0.48; nuclei per well, duplicate mean 5286.
Against JPH3 (junctophilin 3), the values are migration robust z-score 0.84; nuclei per well, duplicate mean 5679.
After knock-down of ANG (angiogenin), the screen gave migration robust z-score -1.12; nuclei per well, duplicate mean 3860.
Knock-down of CTDSP1 (CTD small phosphatase 1) resulted in: migration robust z-score 2; nuclei per well, duplicate mean 6370.
Depletion of RAD51 (RAD51 recombinase) resulted in: migration robust z-score -2.96; nuclei per well, duplicate mean 2503.
After knock-down of MARCHF4 (membrane associated ring-CH-type finger 4), the record shows migration robust z-score 0.7; nuclei per well, duplicate mean 5883.
